Laboratory results as given in paper PMC7317872.
These are yes or no findings as the source states them, for the method shown. Some results given as binding are weak or reduced against the parent protein; the word gives no strength.

Biological target: T1, Cdh23 EC1-2 (WT) (mouse) (UniProt Q99PF4)
T1 sequence: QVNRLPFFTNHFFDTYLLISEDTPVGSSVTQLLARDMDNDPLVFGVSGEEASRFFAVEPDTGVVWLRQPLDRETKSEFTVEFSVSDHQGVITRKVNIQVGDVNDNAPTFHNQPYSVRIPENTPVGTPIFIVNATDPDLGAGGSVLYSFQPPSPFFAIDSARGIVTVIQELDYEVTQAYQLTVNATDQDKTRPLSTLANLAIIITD
Test: live-cell binding to protein-coated surface; protein anchored by its C terminus to glass (sortagging); 10^4 live A549 cells, 2 h, 2 mM Ca2+ buffer, washed; cells counted from images and by MTT; only the target purified

- binding: binds
Substance: Cdh23 (full-length, variant-1) on A549 cells (from UniProt Q9H251 24-3354)
